Laboratory results published in PMC7336374.
These are yes or no findings as the source states them, for the method shown. Binding can be weak; no strength is given. Sequences can lack the tags named with a protein. For part of these data: Binding seen in cells or lysates may run through a third protein. One block for each binder: values may come before it.

Amino acid sequences for entries named in this document (tags omitted). A change or cut given only in a name is not applied to a line headed by its entry.
UniProt Q5SMQ9: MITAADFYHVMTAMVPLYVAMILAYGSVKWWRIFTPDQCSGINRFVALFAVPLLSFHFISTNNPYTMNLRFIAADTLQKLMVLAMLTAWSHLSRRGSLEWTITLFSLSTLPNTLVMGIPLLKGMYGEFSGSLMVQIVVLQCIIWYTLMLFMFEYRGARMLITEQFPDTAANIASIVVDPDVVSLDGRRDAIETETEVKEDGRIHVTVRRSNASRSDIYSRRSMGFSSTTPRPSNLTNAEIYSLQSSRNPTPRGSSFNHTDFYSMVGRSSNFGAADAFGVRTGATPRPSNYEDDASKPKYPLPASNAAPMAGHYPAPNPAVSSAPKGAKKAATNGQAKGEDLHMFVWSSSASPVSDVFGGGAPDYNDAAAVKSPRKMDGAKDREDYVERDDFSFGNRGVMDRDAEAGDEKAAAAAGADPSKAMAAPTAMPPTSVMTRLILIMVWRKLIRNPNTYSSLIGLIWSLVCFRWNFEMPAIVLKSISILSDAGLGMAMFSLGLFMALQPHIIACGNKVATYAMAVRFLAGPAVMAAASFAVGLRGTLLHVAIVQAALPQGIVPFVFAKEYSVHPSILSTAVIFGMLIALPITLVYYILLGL
UniProt Q67UL3: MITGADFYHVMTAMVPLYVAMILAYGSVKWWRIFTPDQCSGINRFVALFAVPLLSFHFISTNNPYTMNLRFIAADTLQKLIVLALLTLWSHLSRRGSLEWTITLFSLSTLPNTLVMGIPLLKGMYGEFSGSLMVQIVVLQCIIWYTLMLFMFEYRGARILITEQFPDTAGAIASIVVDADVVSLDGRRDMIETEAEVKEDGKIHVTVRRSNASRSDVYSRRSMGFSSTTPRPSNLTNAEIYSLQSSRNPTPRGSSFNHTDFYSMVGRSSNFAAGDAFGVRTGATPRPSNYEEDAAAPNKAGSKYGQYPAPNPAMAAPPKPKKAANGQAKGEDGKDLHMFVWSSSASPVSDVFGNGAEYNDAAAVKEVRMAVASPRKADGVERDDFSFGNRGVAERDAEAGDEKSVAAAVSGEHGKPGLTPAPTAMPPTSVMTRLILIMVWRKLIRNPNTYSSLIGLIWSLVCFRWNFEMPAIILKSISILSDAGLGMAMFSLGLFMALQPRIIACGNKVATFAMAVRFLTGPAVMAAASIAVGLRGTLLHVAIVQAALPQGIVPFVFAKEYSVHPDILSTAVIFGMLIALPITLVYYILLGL

Tests used:
[1] = biological target: GST-tagged OsPIN1a (rice (Oryza sativa L.)) (UniProt Q5SMQ9); test: pull-down; in vitro pull-down of HIS-tagged OsPID and GST-tagged partners expressed in E. coli BL21; which was held is not told
[2] = biological target: GFP-tagged OsPIN1a (rice (Oryza sativa L.)) (UniProt Q67UL3); test: co-IP; FLAG-tagged OsPID and GFP-tagged partners co-transformed into rice protoplasts; which was precipitated is not told
[3] = biological target: OsPIN1a, BiFC fusion in SCYCE (rice (Oryza sativa L.)) (UniProt Q67UL3); test: split reporter; BiFC: SCYNE(R)::OsPID with SCYCE fusions, Agrobacterium GV3101 with the p19 strain infiltrated into 4- to 6-week-old tobacco leaves; SCFP signal by confocal microscopy
[4] = biological target: LOC_Os06g12580, yeast two-hybrid fusion (rice (Oryza sativa L.)); test: two-hybrid; OsPID in pGADT7, partners in pGBKT7, co-transformed into yeast strain AH109; growth on synthetic dropout medium without Trp, Leu, Ade and His at 28°C
[5] = biological target: LOC_Os04g31910, yeast two-hybrid fusion (rice (Oryza sativa L.)); test: as above
[6] = biological target: LOC_Os02g27030, yeast two-hybrid fusion (rice (Oryza sativa L.)); test: as above

binding [1]: binds
B1: HIS-tagged OsPINOID (OsPID) (protein, UniProt Q2QM77 1-484)
chain: MVAAVRAPVKPEMVELSPAAMERYSSDADTTAPNSSLSSAASSTGSLARCSSLSRLSFDCSPSAAVAAAATSCSPPRASVLLRPHRSGDVAWAAIRAASTTSAAPLGPRDFKLVRRIGGGDIGTVYLCRLRSSPERESPCMYAMKVVDRRAVARKQKLGRAAAEKRILRQLDHPFLPTLFADFDATPHFSCAVMEFCPGGDLHSLRHRMPSRRFPLPSARFYAAEVLLAIEYLHMMGIVYRDLKPENVLIRADGHIMLTDFDLSLQSTTSPSLDGDTDTDDEASGGASCFPDHLLRFKRRRNAVAAPRPRFVAEPVDARSCSFVGTHEYVAPEVASGGAHGAAVDWWAYGVFLYELIYGRTPFAGATNEATLRNIVRRPLAFPSGSGSCGPADADARDLIARLLAKDPAARLGSRRGAADVKSHPFFKSLNLALLRSSRPPVVPGAGAGAAPLHRSQSCKAAPTTPPPPTTTKPANATARFDLF

binding [2]: binds
B2: 3xFLAG-tagged OsPINOID (OsPID) (protein, UniProt Q2QM77 1-484)
chain: MVAAVRAPVKPEMVELSPAAMERYSSDADTTAPNSSLSSAASSTGSLARCSSLSRLSFDCSPSAAVAAAATSCSPPRASVLLRPHRSGDVAWAAIRAASTTSAAPLGPRDFKLVRRIGGGDIGTVYLCRLRSSPERESPCMYAMKVVDRRAVARKQKLGRAAAEKRILRQLDHPFLPTLFADFDATPHFSCAVMEFCPGGDLHSLRHRMPSRRFPLPSARFYAAEVLLAIEYLHMMGIVYRDLKPENVLIRADGHIMLTDFDLSLQSTTSPSLDGDTDTDDEASGGASCFPDHLLRFKRRRNAVAAPRPRFVAEPVDARSCSFVGTHEYVAPEVASGGAHGAAVDWWAYGVFLYELIYGRTPFAGATNEATLRNIVRRPLAFPSGSGSCGPADADARDLIARLLAKDPAARLGSRRGAADVKSHPFFKSLNLALLRSSRPPVVPGAGAGAAPLHRSQSCKAAPTTPPPPTTTKPANATARFDLF

binding [3]: binds
B3: OsPINOID (OsPID), BiFC fusion in SCYNE(R) (protein, UniProt Q2QM77 1-484)
chain: MVAAVRAPVKPEMVELSPAAMERYSSDADTTAPNSSLSSAASSTGSLARCSSLSRLSFDCSPSAAVAAAATSCSPPRASVLLRPHRSGDVAWAAIRAASTTSAAPLGPRDFKLVRRIGGGDIGTVYLCRLRSSPERESPCMYAMKVVDRRAVARKQKLGRAAAEKRILRQLDHPFLPTLFADFDATPHFSCAVMEFCPGGDLHSLRHRMPSRRFPLPSARFYAAEVLLAIEYLHMMGIVYRDLKPENVLIRADGHIMLTDFDLSLQSTTSPSLDGDTDTDDEASGGASCFPDHLLRFKRRRNAVAAPRPRFVAEPVDARSCSFVGTHEYVAPEVASGGAHGAAVDWWAYGVFLYELIYGRTPFAGATNEATLRNIVRRPLAFPSGSGSCGPADADARDLIARLLAKDPAARLGSRRGAADVKSHPFFKSLNLALLRSSRPPVVPGAGAGAAPLHRSQSCKAAPTTPPPPTTTKPANATARFDLF

binding [4]: binds
binding [5]: binds
binding [6]: binds
B4: OsPINOID (OsPID), yeast two-hybrid fusion (protein, UniProt Q2QM77 1-484)
chain: MVAAVRAPVKPEMVELSPAAMERYSSDADTTAPNSSLSSAASSTGSLARCSSLSRLSFDCSPSAAVAAAATSCSPPRASVLLRPHRSGDVAWAAIRAASTTSAAPLGPRDFKLVRRIGGGDIGTVYLCRLRSSPERESPCMYAMKVVDRRAVARKQKLGRAAAEKRILRQLDHPFLPTLFADFDATPHFSCAVMEFCPGGDLHSLRHRMPSRRFPLPSARFYAAEVLLAIEYLHMMGIVYRDLKPENVLIRADGHIMLTDFDLSLQSTTSPSLDGDTDTDDEASGGASCFPDHLLRFKRRRNAVAAPRPRFVAEPVDARSCSFVGTHEYVAPEVASGGAHGAAVDWWAYGVFLYELIYGRTPFAGATNEATLRNIVRRPLAFPSGSGSCGPADADARDLIARLLAKDPAARLGSRRGAADVKSHPFFKSLNLALLRSSRPPVVPGAGAGAAPLHRSQSCKAAPTTPPPPTTTKPANATARFDLF
